Assay results: paper PMC7105138, “Modeling cancer genomic data in yeast reveals selection against ATM function during tumorigenesis” (PLoS Genetics, 2020)
These are yes or no findings as the source states them, for the method shown. Some binding calls cover weakened binding; strength is not graded here. Where a sequence is shown, tags or fusion partners need not be part of it.

Target: T1, Xrs2-FLAG (S. cerevisiae) (UniProt P33301)
T1 sequence: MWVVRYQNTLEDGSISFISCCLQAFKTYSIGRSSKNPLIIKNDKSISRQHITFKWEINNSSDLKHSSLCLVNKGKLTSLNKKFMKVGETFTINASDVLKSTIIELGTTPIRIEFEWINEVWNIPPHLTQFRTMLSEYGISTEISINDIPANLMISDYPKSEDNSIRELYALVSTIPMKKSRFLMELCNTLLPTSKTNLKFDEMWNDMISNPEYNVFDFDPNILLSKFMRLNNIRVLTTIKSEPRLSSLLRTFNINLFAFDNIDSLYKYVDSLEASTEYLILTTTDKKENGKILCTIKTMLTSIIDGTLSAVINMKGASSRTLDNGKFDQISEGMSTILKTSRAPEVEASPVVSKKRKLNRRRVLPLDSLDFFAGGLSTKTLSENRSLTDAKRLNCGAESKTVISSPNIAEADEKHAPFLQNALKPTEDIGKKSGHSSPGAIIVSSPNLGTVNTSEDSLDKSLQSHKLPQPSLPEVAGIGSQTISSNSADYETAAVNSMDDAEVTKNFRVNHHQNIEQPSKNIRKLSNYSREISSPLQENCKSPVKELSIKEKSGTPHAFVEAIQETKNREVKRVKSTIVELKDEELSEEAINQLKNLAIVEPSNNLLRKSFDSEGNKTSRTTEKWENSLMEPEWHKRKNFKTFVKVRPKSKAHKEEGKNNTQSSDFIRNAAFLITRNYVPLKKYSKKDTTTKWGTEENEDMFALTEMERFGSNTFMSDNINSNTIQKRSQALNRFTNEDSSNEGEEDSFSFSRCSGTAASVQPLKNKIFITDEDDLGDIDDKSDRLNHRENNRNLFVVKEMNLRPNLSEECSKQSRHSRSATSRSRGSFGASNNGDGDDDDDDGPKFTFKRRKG
Experiment: co-purification on anti-FLAG agarose; Sf9 cells co-infected with baculoviruses for Mre11-his6, Xrs2-FLAG and Rad50 WT or mutant; lysate at 0.5 M NaCl on anti-FLAG M2 agarose overnight at 4°C, washed 10x with 500 mM NaCl, eluted with 3xFLAG peptide in 250 mM NaCl; Coomassie-stained SDS-PAGE

B1: Rad50 WT (in MRX-WT from insect cells) (protein, UniProt P12753 1-1312)
chain: MSAIYKLSIQGIRSFDSNDRETIEFGKPLTLIVGMNGSGKTTIIECLKYATTGDLPPNSKGGVFIHDPKITGEKDIRAQVKLAFTSANGLNMIVTRNIQLLMKKTTTTFKTLEGQLVAINNSGDRSTLSTRSLELDAQVPLYLGVPKAILEYVIFCHQEDSLWPLSEPSNLKKKFDEIFQAMKFTKALDNLKSIKKDMSVDIKLLKQSVEHLKLDKDRSKAMKLNIHQLQTKIDQYNEEVSEIESQLNEITEKSDKLFKSNQDFQKILSKVENLKNTKLSISDQVKRLSNSIDILDLSKPDLQNLLANFSKVLMDKNNQLRDLETDISSLKDRQSSLQSLSNSLIRRQGELEAGKETYEKNRNHLSSLKEAFQHKFQGLSNIENSDMAQVNHEMSQFKAFISQDLTDTIDQFAKDIQLKETNLSDLIKSITVDSQNLEYNKKDRSKLIHDSEELAEKLKSFKSLSTQDSLNHELENLKTYKEKLQSWESENIIPKLNQKIEEKNNEMIILENQIEKFQDRIMKTNQQADLYAKLGLIKKSINTKLDELQKITEKLQNDSRIRQVFPLTQEFQRADLEMDFQKLFINMQKNIAINNKKMHELDRRYTNALYNLNTIEKDLQDNQKSKEKVIQLLSENLPEDCTIDEYNDVLEETELSYKTALENLKMHQTTLEFNRKALEIAERDSCCYLCSRKFENESFKSKLLQELKTKTDANFEKTLKDTVQNEKEYLHSLRLLEKHIITLNSINEKIDNSQKCLEKAKEETKTSKSKLDELEVDSTKLKDEKELAESEIRPLIEKFTYLEKELKDLENSSKTISEELSIYNTSEDGIQTVDELRDQQRKMNDSLRELRKTISDLQMEKDEKVRENSRMINLIKEKELTVSEIESSLTQKQNIDDSIRSKRENINDIDSRVKELEARIISLKNKKDEAQSVLDKVKNERDIQVRNKQKTVADINRLIDRFQTIYNEVVDFEAKGFDELQTTIKELELNKAQMLELKEQLDLKSNEVNEEKRKLADSNNEEKNLKQNLELIELKSQLQHIESEISRLDVQNAEAERDKYQEESLRLRTRFEKLSSENAGKLGEMKQLQNQIDSLTHQLRTDYKDIEKNYHKEWVELQTRSFVTDDIDVYSKALDSAIMKYHGLKMQDINRIIDELWKRTYSGTDIDTIKIRSDEVSSTVKGKSYNYRVVMYKQDVELDMRGRCSAGQKVLASIIIRLALSETFGANCGVIALDEPTTNLDEENIESLAKSLHNIINMRRHQKNFQLIVITHDEKFLGHMNAAAFTDHFFKVKRDDRQKSQIEWVDINRVTY
binding: binds
